Results are given in words; binding and its absence hold for the method and conditions named. Some binding calls cover weakened binding; strength is not graded here.
Columns and labels:
Escherichia coli MnmG [1] = molecular target: T1, Escherichia coli MnmG (E. coli, UniProt P0A6U3 1-629); test: mass photometry; SEC peak fraction of the complex (100 μM MnmE + 50 μM MnmG, 1 mM GppNHp, 1 mM FAD, 150 mM KCl) measured at 100 nM on a Refeyn OneMP; both purified
T1 construct: E. coli MnmG in pET14b, preceded by an N-terminal His-tag and TEV cleavage site; domains described over residues 1-629; Homodimer (β2); also called EcMnmG; β2; source: E. coli BL21(DE3), purified (Ni-NTA IMAC, Superdex200 SEC)
T1 sequence: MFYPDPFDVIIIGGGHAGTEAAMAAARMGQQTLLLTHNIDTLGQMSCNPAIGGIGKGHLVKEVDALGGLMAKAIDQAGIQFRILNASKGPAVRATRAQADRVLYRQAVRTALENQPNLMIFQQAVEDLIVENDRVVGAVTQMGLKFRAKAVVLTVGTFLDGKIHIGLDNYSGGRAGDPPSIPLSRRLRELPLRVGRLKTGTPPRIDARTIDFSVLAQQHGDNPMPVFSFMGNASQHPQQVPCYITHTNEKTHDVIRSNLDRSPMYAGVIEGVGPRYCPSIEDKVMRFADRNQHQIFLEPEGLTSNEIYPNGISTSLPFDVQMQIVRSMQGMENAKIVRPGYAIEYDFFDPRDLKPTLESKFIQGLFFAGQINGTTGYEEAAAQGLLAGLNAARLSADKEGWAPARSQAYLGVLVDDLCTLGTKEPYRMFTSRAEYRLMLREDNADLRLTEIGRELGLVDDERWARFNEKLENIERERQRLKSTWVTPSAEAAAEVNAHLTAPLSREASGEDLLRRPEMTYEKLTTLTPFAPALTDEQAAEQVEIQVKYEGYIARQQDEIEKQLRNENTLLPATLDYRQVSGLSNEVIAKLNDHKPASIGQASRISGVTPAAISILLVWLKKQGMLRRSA

Escherichia coli MnmG [2] = molecular target: T1, Escherichia coli MnmG; test: cryo-EM structure; MnmE–MnmG complex formed with GppNHp, FAD and K+ (20 mM HEPES pH 7.5, 150 mM KCl, 5 mM MgCl2, 2 mM DTT), purified by SEC; α2β2 and α4β2 classes; both purified

binding (Escherichia coli MnmG [1]): binds
binding (Escherichia coli MnmG [2]): binds
B1: Escherichia coli MnmE (wild type) (enzyme, E. coli, UniProt P25522 1-454, looked up)
chain: MSDNDTIVAQATPPGRGGVGILRISGFKAREVAETVLGKLPKPRYADYLPFKDADGSVLDQGIALWFPGPNSFTGEDVLELQGHGGPVILDLLLKRILTIPGLRIARPGEFSERAFLNDKLDLAQAEAIADLIDASSEQAARSALNSLQGAFSARVNHLVEALTHLRIYVEAAIDFPDEEIDFLSDGKIEAQLNDVIADLDAVRAEARQGSLLREGMKVVIAGRPNAGKSSLLNALAGREAAIVTDIAGTTRDVLREHIHIDGMPLHIIDTAGLREASDEVERIGIERAWQEIEQADRVLFMVDGTTTDAVDPAEIWPEFIARLPAKLPITVVRNKADITGETLGMSEVNGHALIRLSARTGEGVDVLRNHLKQSMGFDTNMEGGFLARRRHLQALEQAAEHLQQGKAQLLGAWAGELLAEELRLAQQNLSEITGEFTSDDLLGRIFSSFCIGK
notes: E. coli MnmE, wild-type open reading frame in pET20b, preceded by an N-terminal His-tag and TEV cleavage site; 454 residues (K454 is the C-terminal residue); Homodimer (α2); also called EcMnmE; α2; source: E. coli BL21(DE3), purified (Ni-NTA IMAC, alkaline phosphatase treatment, second Ni-NTA, Superdex200 SEC)

Source: publication PMC12397908, “Cryo-EM structures of the MnmE–MnmG complex reveal large conformational changes and provide new insights into the mechanism of tRNA modification” (Nucleic Acids Research, 2025)
